No constants are given. Whether binding was seen depends on the method and setting. Binding seen in cells or lysates may run through a third protein. Where a sequence is shown, tags or fusion partners need not be part of it.
Tests used:
[1] = molecular target: porcine Gasdermin D residues 194-279 (pGSDMD-194-279) (porcine (cDNA of IPEC-J2 cells)); test: co-IP
[2] = molecular target: porcine Gasdermin D residues 1-193 (pGSDMD-1-193) (porcine (cDNA of IPEC-J2 cells)); test: co-IP

binding [1]: no binding
binding [2]: no binding
B1: porcine caspase-1 (HA-caspase-1) (enzyme, UniProt Q9N2I1 1-404)
chain: MADKVLKEKRRLFVRSVAMGTINGLLDELLETRVLNQEEVEIVRGENATVMDKARALIDSVIRKGPQACQICINHICGDDPHLAGVLELSTGSQSGKCLTVQESQAVVPPFPAPQTVQDNPVKPASSEPRGSLKLCPPDIAQRLWKEKSAEIYPIMGKSIRTRLALIICNTEFENLPRRDGADVDIRDMKILLEDLGYSVDVRENLTASDMAIELKAFAARPEHKSSDSTFLVLMSHGIQAGICGKKYSEEVPDVLEVNTVFQILNTLNCPSLKDKPKVIIIQACRGEKQGVVWIKDSVGPSGNSSLLAAEDFEYDAIKKAHIEKDFIAFCSSTPDNVSWRHPLLGSLFIIKLIKILQEHAWSCGLEEIFRKVRFSFELADGRAQMPTAERVTLTRSFYLFPGH

— publication doi:10.1101/2021.02.23.432418
